From patent publication US20240228639A1
Results are given in words; binding and its absence hold for the method and conditions named.

Key:
[1] = target: ANTI-CD19 CAR; experiment: flow cytometry, Clone 60-PE on anti-CD19 CAR T cells (concentration from paragraph 212)
[2] = target: ANTI-FLT3 CAR; experiment: flow cytometry, Clone 60-PE on anti-FLT3 CAR T cells (concentration from paragraph 212)
[3] = target: ANTI-BCMA CAR; experiment: flow cytometry, Clone 60-PE on anti-BCMA CAR T cells (concentration from paragraph 212)

Measured: binding

B1: anti-idiotype antibody Clone 60 (IDA2002-1.60) (antibody, mouse IgG1, kappa, V domains shown)
VH: EVQLQQSGPELVKTGTSVKISCKASGYSITGYYIHWVKQSHGRSLDWIGSISFYNGATTYNQKFKGKVTFTVDTSSSTAYMQFNSLTSEDSAVYYCGRRGDDYDVFAYWGQGTLVTVSA
VL: DIVLTQSPASLAVSLGQRATISCRASESVDSYGYSFLHWYQQKPGQPPTLLIYRASNLESGIPARFSGSGSRTDFTLTINSVEADDVATYYCQQSNEDPWTFGGGTKLEIKR
no binding (tested: 3 ug/mL): [1] | [2] | [3]
